Results: the supplement of paper PMC8728848
The other results are listed elsewhere or left out.

Legend:
Assay in all cases: glycan array binding signal (z-score within array); higher = stronger binding
Details in all cases: glycan notation: IUPAC condensed, linker removed
Gal6S(b1-4)Glc6S = molecular target: Gal6S(b1-4)Glc6S
Method in brief: (§1)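 Negative Z-scores can be read as non-binding. The Z-score is calculated within each array and then averaged across arrays of one protein sequence at different concentrations or buffers and across linkers. Arrays, 3228 in all, were curated from the Consortium for Functional Glycomics database and kept only where the protein sequence was available.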

Gal6S(b1-4)GlcNAc = molecular target: Gal6S(b1-4)GlcNAc
Method in brief: as §1

Gal6S(b1-4)GlcNAc6S = molecular target: Gal6S(b1-4)GlcNAc6S
Method in brief: as §1

GalNAc(a1-3)Gal = molecular target: GalNAc(a1-3)Gal
Method in brief: as §1

GalNAc(a1-3)GalNAc = molecular target: GalNAc(a1-3)GalNAc
Method in brief: as §1

[1] = molecular target: GalNAc(a1-3)GalNAc(b1-3)Gal(a1-4)Gal(b1-4)Glc
Method in brief: as §1

[2] = molecular target: GalNAc(a1-3)GalNAc(b1-3)Gal(a1-4)Gal(b1-4)GlcNAc
Method in brief: as §1

GalNAc(b1-3)Gal = molecular target: GalNAc(b1-3)Gal
Method in brief: as §1

[3] = molecular target: GalNAc(b1-3)Gal(a1-4)Gal(b1-4)GlcNAc
Method in brief: as §1

[4] = molecular target: GalNAc(b1-3)Gal(a1-4)Gal(b1-4)GlcNAc(b1-3)Gal(b1-4)Glc
Method in brief: as §1

[5] = molecular target: GalNAc(b1-3)Gal(a1-6)Gal(b1-4)Glc
Method in brief: as §1

GalNAc(b1-3)GalNAc = molecular target: GalNAc(b1-3)GalNAc
Method in brief: as §1

GalNAc(b1-3)GlcNAc = molecular target: GalNAc(b1-3)GlcNAc
Method in brief: as §1

GalNAc(b1-4)Gal(b1-4)Glc = molecular target: GalNAc(b1-4)Gal(b1-4)Glc
Method in brief: as §1

GalNAc(b1-4)GlcNAc = molecular target: GalNAc(b1-4)GlcNAc
Method in brief: as §1

[6] = molecular target: GalNAc(b1-4)GlcNAc(b1-2)Man
Method in brief: as §1

[7] = molecular target: GalNAc(b1-4)GlcNAc(b1-2)Man(a1-3)[GalNAc(b1-4)GlcNAc(b1-2)Man(a1-6)]Man(b1-4)GlcNAc(b1-4)GlcNAc
Method in brief: as §1

[8] = molecular target: GalNAc(b1-4)GlcNAc(b1-3)GalNAc(b1-4)GlcNAc
Method in brief: as §1

GalNAc(b1-4)GlcNAc6S = molecular target: GalNAc(b1-4)GlcNAc6S
Method in brief: as §1

GalNAc(b1-6)GalNAc = molecular target: GalNAc(b1-6)GalNAc
Method in brief: as §1

GalNAc3S(b1-4)GlcNAc = molecular target: GalNAc3S(b1-4)GlcNAc
Method in brief: as §1

GalNAc3S(b1-4)GlcNAc3S = molecular target: GalNAc3S(b1-4)GlcNAc3S
Method in brief: as §1

[9] = molecular target: GalNAc3S(b1-4)[Fuc(a1-3)]GlcNAc
Method in brief: as §1

GalNAc4S6S(b1-4)GlcNAc = molecular target: GalNAc4S6S(b1-4)GlcNAc
Method in brief: as §1

GalNAc6S(b1-4)GlcNAc = molecular target: GalNAc6S(b1-4)GlcNAc
Method in brief: as §1

Glc(a1-4)Glc = molecular target: Glc(a1-4)Glc
Method in brief: as §1

[10] = molecular target: Glc(a1-4)Glc(a1-4)Glc(a1-4)Glc
Method in brief: as §1

Glc(a1-6)Glc(a1-6)Glc = molecular target: Glc(a1-6)Glc(a1-6)Glc
Method in brief: as §1

[11] = molecular target: Glc(a1-6)Glc(a1-6)Glc(a1-6)Glc
Method in brief: as §1

Glc(b1-4)Glc = molecular target: Glc(b1-4)Glc
Method in brief: as §1

Glc(b1-6)Glc = molecular target: Glc(b1-6)Glc
Method in brief: as §1

GlcA(b1-3)Gal = molecular target: GlcA(b1-3)Gal
Method in brief: as §1

GlcA(b1-3)GlcNAc = molecular target: GlcA(b1-3)GlcNAc
Method in brief: as §1

GlcA(b1-6)Gal = molecular target: GlcA(b1-6)Gal
Method in brief: as §1

[12] = molecular target: GlcA3S(b1-3)Gal(b1-4)GlcNAc(b1-2)Man
Method in brief: as §1

[13] = molecular target: GlcA3S(b1-3)Gal(b1-4)GlcNAc(b1-3)Gal(b1-4)Glc
Method in brief: as §1

[14] = molecular target: GlcNAc(a1-3)Gal(b1-4)GlcNAc
Method in brief: as §1

B1: PX14404-bvu-534-26-534 (Bacteroides vulgatus) (protein)
chain: EDPRGKLTPENFFSTQDELNMSIYALYQKVNLSQVYTNMQLPQWQGDDITTNPGSNKQPAAEMDKFAAANNNKGVKDAWNMHYAIVKAANLIIQGASKTPTTQDEINIALGQAKFWRAYAYFTLVRLWGPLPMNLDNVNDDYTKPLSPVEEVYGHIVQDLTEAEAVLPTGYSGSPRFLNGVNVYVTRQAAKSTLAAVYMAMAGWPMNKTEYYAKAAEKAKEVIEGVNRGEYEYKLDKDYKDVYAMSNNYNNETVLGINYSPFVDWAQDSELTSCNQFESLGGWGDAWGEIRFWKEFPDGPRKDATYDPKIRLKDGTLVDWWELKEDGTPVVPEHHPMFSIFSVNWDPASKVNTSAPYDYTKPASQNMCNDHRHRIIRYSEVLLWYAEAKARTGQTDELAFKCLNDVRERAGLEPLTGLSADDLAEAAYKEHGWEVAGYWVALVTRRADQFRMNRLKDTFKERAENTAVEVADGILVKESVEYTNRTWSDNLMYLPYPDMDSQKNPNLVR
glycan array binding signal (z-score) (Gal6S(b1-4)Glc6S): 3.4
glycan array binding signal (z-score) (Gal6S(b1-4)GlcNAc): 0.072
glycan array binding signal (z-score) (Gal6S(b1-4)GlcNAc6S): 0.237
glycan array binding signal (z-score) (GalNAc(a1-3)Gal): 0.178
glycan array binding signal (z-score) (GalNAc(a1-3)GalNAc): -0.31
glycan array binding signal (z-score) [1]: -0.736
glycan array binding signal (z-score) [2]: -0.297
glycan array binding signal (z-score) (GalNAc(b1-3)Gal): 0.268
glycan array binding signal (z-score) [3]: 0.643
glycan array binding signal (z-score) [4]: -0.497
glycan array binding signal (z-score) [5]: -0.641
glycan array binding signal (z-score) (GalNAc(b1-3)GalNAc): -0.228
glycan array binding signal (z-score) (GalNAc(b1-3)GlcNAc): -0.433
glycan array binding signal (z-score) (GalNAc(b1-4)Gal(b1-4)Glc): 1.24
glycan array binding signal (z-score) (GalNAc(b1-4)GlcNAc): -0.29
glycan array binding signal (z-score) [6]: 1.36
glycan array binding signal (z-score) [7]: -0.187
glycan array binding signal (z-score) [8]: 0.187
glycan array binding signal (z-score) (GalNAc(b1-4)GlcNAc6S): 0.556
glycan array binding signal (z-score) (GalNAc(b1-6)GalNAc): -0.868
glycan array binding signal (z-score) (GalNAc3S(b1-4)GlcNAc): -0.93
glycan array binding signal (z-score) (GalNAc3S(b1-4)GlcNAc3S): 0.453
glycan array binding signal (z-score) [9]: 0.588
glycan array binding signal (z-score) (GalNAc4S6S(b1-4)GlcNAc): -0.452
glycan array binding signal (z-score) (GalNAc6S(b1-4)GlcNAc): -0.702
glycan array binding signal (z-score) (Glc(a1-4)Glc): 0.032
glycan array binding signal (z-score) [10]: 1.05
glycan array binding signal (z-score) (Glc(a1-6)Glc(a1-6)Glc): -0.19
glycan array binding signal (z-score) [11]: 0.424
glycan array binding signal (z-score) (Glc(b1-4)Glc): -0.903
glycan array binding signal (z-score) (Glc(b1-6)Glc): 0.352
glycan array binding signal (z-score) (GlcA(b1-3)Gal): -0.659
glycan array binding signal (z-score) (GlcA(b1-3)GlcNAc): 1.07
glycan array binding signal (z-score) (GlcA(b1-6)Gal): 0.681
glycan array binding signal (z-score) [12]: -0.757
glycan array binding signal (z-score) [13]: 0.758
glycan array binding signal (z-score) [14]: -0.95
